Data set [1] addresses PyRo1 / hnRNP-K, native Jurkat nuclear factor (Homo sapiens) (UniProt P61978). The experiment in a line: competition with a labelled probe. The following applies: unrelated competitor; outcome not explicitly described in text; protein in an extract; single-stranded DNA.
The next data set addresses GST (UniProt P08515). In words: EMSA. The following applies: GST-alone control; outcome implied; purified recombinant protein; protein details: GST alone from parent vector; label: 32P 5'; single-stranded DNA.
Data set [2] addresses PyRo1 / hnRNP-K, native Jurkat nuclear factor (Homo sapiens) (UniProt P61978). In words: pull-down. Conditions: 3'-biotinylated n1 on streptavidin particles; captured protein identified as hnRNP-K by MALDI-TOF-MS; protein in an extract; label: 32P 5'; single-stranded DNA.
Data set [3] has the same target. In words: EMSA. The following applies: all dT replaced by 5-bromo-2'-deoxyuridine (U = bromouracil); 3' biotin; protein in an extract; label: 32P, 3' biotin; single-stranded DNA; variant of CD43 PyRo SS.

For some of these results: Results from cells or extracts need not show a direct contact. For some of these results: Negatives hold for the conditions tested. For some of these results: The exact form of at least one protein or probe is not confirmed.

With GAGTTAGCTCACTCATTAGG [NS-SS], the binding result in data set [1] is recorded as “no binding”.
With GGGCCCACTTCCTTTCCCCTTG [CD43 PyRo SS], the binding result with GST is listed as “no binding”; in data set [2], “binds”.
For GGGCCCACUUCCUUUCCCCUUG [CD43 PyRo SSUB], the binding result in data set [3] is “binds”.
